Test results published in PubChem BioAssay AID540276 (National Center for Advancing Translational Sciences (NCATS), 2011).
Where “and” joins values, the source holds several entries; their conditions need not be identical. Identical values can stand only once. In all, about 300,000 compounds went through this assay and about 5,400 (1.8%) were called active. Inconclusive means that the source gave no clear call. Such entries were picked first, then a sample of the others. Calls follow the shape of the full dose curve; tested in HEK293 cells. Potencies of inconclusive entries are doubtful fits and often do not repeat.

Experiment: qHTS for inhibitors of binding or entry into cells for Marburg Virus
Conditions: Marburg virus pseudotyped entry inhibition, cell reporter; activity change, negative = inhibition: at 37.8 µM (top of the series) unless noted
% is scaled to controls: 0 for no effect and ±100 for the full control effect; potency is read from the fitted curve at half-maximal effect.

Row | Structure (SMILES) | Potency | activity change, negative = inhibition
1 | COc1ccc(CNC(=O)c2cc(-c3ccncc3)nc3c(C)cc(C)cc23)cc1OC | inconclusive: 35.5 µM [inhibitor, single point] | –
2 | CSc1nnc(-c2sccc2OCc2ccc(C)cc2)n1C | – | inactive: -17.8%
3 | Cn1c(O)c(/C=N/Nc2ccccc2)c(=O)n(C)c1=O | inconclusive: 4.47 µM [activator, single point] | –
4 | Cc1cc(/C=N/NC(=O)CC2(C)OCCO2)c(C)n1-c1ccc(Cl)c(Cl)c1 | inconclusive: 20 µM [inhibitor, single point] | –
5 | COc1cccc(/C=N/NC(=O)c2cc(-c3ccccn3)nc3ccccc23)c1O | inconclusive: 7.94 µM [inhibitor, partial curve, poor fit] | –
6 | O=C1CC(c2cccc(Cl)c2)CC(O)=C1C=Nc1cccc(Cl)c1 (stereo not drawn) | – | inactive: 0.26%
7 | Nc1c(C(=O)Nc2ccccc2)sc2nc(-c3ccco3)ccc12 | inconclusive: 29.1 µM [inhibitor, single point] | –
8 | COc1ccc(C(=O)N/C(=C/c2cccc3ccccc23)C(=O)NCCc2c[nH]c3ccccc23)cc1OC | inconclusive: 3.55 µM [activator, full curve, poor fit] | –
9 | Fc1ccc(NC(=S)Nc2ccccc2OC(F)F)cc1Cl | – | inactive: -22.4%
10 | CCOC(=O)NC(=O)CSc1nc2ccc([N+](=O)[O-])cc2[nH]1 | – | inconclusive: 8.16% [activator] [at 46.1 µM]
11 | CC(C)CC(=O)NCCCN1CCN(CCCNC(=O)CC(C)C)CC1 | inconclusive: 6.51 µM [activator, single point] | –
12 | C/C(=N\NC(=O)COc1ccccc1[N+](=O)[O-])c1cccc(NC(=O)c2ccncc2)c1 | inconclusive: 1.12 µM [inhibitor, single point] | –
13 | Cc1cc(C)c(C#N)c(SCc2nnc(-c3ccccc3[N+](=O)[O-])o2)n1 | inconclusive: 3.16 µM [inhibitor, single point] | –
14 | Cc1ccc2cc3cc(C(=O)N(C)c4ccccc4C)oc3nc2c1 | inconclusive: 6.31 µM [activator, full curve] | –
15 | O=S(=O)(Nc1cccc(-c2cn3c(n2)SCC3)c1)c1ccc(F)cc1F | – | inactive: -21.1%
16 | CCn1cc(C(=O)Nc2ccc(C(C)C)cc2)c2cc(OC)c(OC)cc2c1=O | inconclusive: 35.5 µM [inhibitor, single point] | –
17 | COc1ccc(CCNC(=O)CS(=O)(=O)Cc2nc(-c3ccc(C)cc3)oc2C)cc1OC | inconclusive: 10 µM [inhibitor, partial curve, poor fit] | –
18 | CCCS(=O)(=O)c1nc(S(=O)(=O)c2ccc(C)cc2)c(NCCCn2ccnc2)s1 | inconclusive: 3.16 µM [inhibitor, single point] | –
19 | CC(C)C(c1nnnn1C1CCCCC1)N1CCc2ccccc21 (stereo not drawn) | inconclusive: 10 µM [inhibitor, partial curve, poor fit] | –
20 | COc1ccc(Nc2cc(C(=O)NCCCN3CCN(C)CC3)c3ccccc3n2)cc1 | inconclusive: 35.5 µM [inhibitor, single point] | –
21 | Cc1ccc(NC(=O)c2ccc(NS(=O)(=O)c3c(C)noc3C)cc2)cc1C | inconclusive: 1 µM [inhibitor, single point] | –
22 | COCC(C)n1c(C)cc(C(=O)CSc2nc(C)c(C)c(C)n2)c1C (stereo not drawn) | – | inactive: -3.83%

Row | Structure (SMILES) | Potency | activity change, negative = inhibition
23 | O=C(CSc1nnc(-c2cccnc2)n1CCc1ccccc1)N1CCCCC1 | inconclusive: 2.91 µM [inhibitor, partial curve, poor fit] | –
24 | CCCCc1nnc(NC(=O)Cc2ccc(OC)c(S(=O)(=O)N3CCOCC3)c2)s1 | – | inactive: -19%
25 | NC(=O)CSc1nnc(-c2ccc3c(c2)OCO3)o1 | inconclusive: 2.82 µM [activator, single point] | –
26 | Cc1cccc(N2CCN(c3nc4ccccc4c4nc(-c5cccnc5)nn34)CC2)c1C | – | inactive: -12.5% [at 46.1 µM]
27 | Cc1ccc(/C=N/NC(=O)c2ccc(Br)o2)s1 | inconclusive: 29.1 µM [inhibitor, single point] | –
28 | CC(=O)[C@H]1CC[C@H]2[C@@H]3CCC4=CC(=O)CC[C@]4(C)[C@H]3CC[C@]12C | inconclusive: 10 µM [inhibitor, partial curve, poor fit] and inconclusive: 326 nM [inhibitor, full curve, poor fit] | –
29 | CC(C)(C)c1cc(N)on1 | inconclusive: 22.4 µM [activator, single point] | –
30 | CCOc1cc(/C=N/n2cnnc2)ccc1O | – | inactive: -1.26%
31 | CN(C)S(=O)(=O)c1cc(NC(=O)COC(=O)CCc2ccccc2)ccc1Cl | – | inactive: -14.5% [at 46.1 µM]
32 | CC1(C)OC1COc1c2occc2cc2ccc(=O)oc12 (stereo not drawn) | inconclusive: 3.26 µM [activator, single point] | –
33 | COc1ccc2oc(C(=O)OC(C)C(=O)N3C(C)CCCC3C)c(C)c2c1 (stereo not drawn) | – | inactive: 19.5% [at 46.1 µM]
34 | COc1cccc(CNc2ccc3[nH]c(=O)[nH]c3c2)c1OCc1ccc(F)cc1 | inconclusive: 1 µM [activator, full curve, poor fit] | –
35 | CCOCCn1c(N2CCN(c3ccccc3)CC2)nc2c1c(=O)[nH]c(=O)n2C | – | inactive: 3.99% [at 46.1 µM]
36 | O=S(=O)(NCc1ccccc1)c1cnc[nH]1 | – | inactive: 1.18% [at 46.1 µM]
37 | CCOCCCNC(=O)C(c1ccccc1)N(Cc1cccs1)C(=O)c1ccccc1O (stereo not drawn) | inconclusive: 7.94 µM [inhibitor, partial curve, poor fit] | –
38 | CC(=O)O/N=C1\C(=O)N(Cc2ccc(C)cc2)c2ccccc21 | inconclusive: 35.5 µM [inhibitor, partial curve, poor fit] | –
39 | CCOC(=O)C1(C)C=C(Nc2cccc(C)c2)C(=O)N1c1ccccc1 (stereo not drawn) | – | inactive: 8.93% [at 46.1 µM]
40 | C=CCN1C(=O)CSc2ccc(C(=O)NCc3cccs3)cc21 | inconclusive: 14.1 µM [inhibitor, single point] | –
41 | Cc1ccc(-n2c(SCc3cn4ccsc4n3)nc3ccccc3c2=O)cc1 | – | inactive: -24.3%
42 | CCCC[C@]12Cc3cc(OC)c(OC)cc3[C@H](O1)C1=C(O2)C(=O)c2ccccc2C1=O | inconclusive: 0.0094 µM [activator, full curve, poor fit] | –
43 | COc1cc(-c2nnc(SCC(=O)Oc3ccc(C)cc3C)o2)cc(OC)c1OC | inconclusive: 35.5 µM [activator, single point] | –
